This note sets out measurements from paper PMC8689565.

Amino acid sequences for entries named in this document (tags omitted).
UniProt Q86WV6: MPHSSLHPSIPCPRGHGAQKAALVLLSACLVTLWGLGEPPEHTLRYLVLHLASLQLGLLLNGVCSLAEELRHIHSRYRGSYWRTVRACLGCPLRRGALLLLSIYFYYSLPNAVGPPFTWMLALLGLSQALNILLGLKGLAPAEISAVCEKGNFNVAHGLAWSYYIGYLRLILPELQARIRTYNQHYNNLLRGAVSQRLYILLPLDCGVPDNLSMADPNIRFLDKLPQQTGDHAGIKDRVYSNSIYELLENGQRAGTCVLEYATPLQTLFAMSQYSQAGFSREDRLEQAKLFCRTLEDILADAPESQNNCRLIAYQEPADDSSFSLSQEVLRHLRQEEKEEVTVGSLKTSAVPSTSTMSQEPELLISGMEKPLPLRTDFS

Results are given in words; binding and its absence hold for the method and conditions named. In cells and extracts the contact can be indirect. Some results given as binding are weak or reduced against the parent protein; the word gives no strength.

Assay [1] addresses epidermal growth factor receptor (EGFR) (human (endogenous in HT1080 and HeLa)) (UniProt P00533). Description: co-IP; endogenous proteins; HT1080 cells treated with cGAMP for 1 h, with or without 1 h R406 pretreatment; IP with antibody to EGFR, Syk or STING, Western blot; lysis in 20 mM HEPES pH 7.5, 150 mM NaCl, 1% Triton X-100, 0.2% NP-40. Background: In western blotting, separated proteins are transferred to a membrane and probed.

Assay [2] has the same target. Description: co-IP; endogenous proteins; HT1080 cells without cGAMP stimulation; IP and Western blot as for the stimulated cells.
In assay [3] the target is STING (human (endogenous in HT1080)) (UniProt Q86WV6). Description: co-IP; endogenous proteins; HT1080 cells treated with cGAMP for 1 h, with or without 1 h R406 pretreatment; IP with antibody to EGFR, Syk or STING, Western blot; lysis in 20 mM HEPES pH 7.5, 150 mM NaCl, 1% Triton X-100, 0.2% NP-40.

STING (from UniProt Q86WV6 1-379): the binding entry in assay [1] is given as “binds”; in assay [2] it was “no binding (condition: cells without cGAMP stimulation)”.
Regarding “epidermal growth factor receptor (EGFR) (from UniProt P00533 25-1210)”, the binding entry in assay [3] is “binds”.
